PubChem BioAssay AID493246 | Drosophila RNAi Screening Center | 2011
Screen: 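Genes fly cells need to grow and stay alive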 (primary screen). Cells: Drosophila Kc and S2R+ cells. Knock-down reagent: long dsRNA against Drosophila genes. Measurement: 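Raw, unnormalised count of remaining cells in each well; per-plate z-scores of cell number underlie the calls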. Direction: Kc cell number and S2R+ cell number: higher = more cells remaining. Hit rule: 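Counted as a hit if cell number falls by a z-score of at least 3 within its plate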.
The deposit covers about 21,000 reagents; below is an unselected part of those with a known target gene and a result. In the full data, 429 (2%) are marked active. 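Values are raw and not normalised between plates; calls rest on per-plate z-scores that were not deposited.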 Names joined by + are all predicted targets of the reagent. No sequences are given here. Not stated in the record: the amount of reagent, the time to read-out.

no.	gene knocked down	DRSC id	Kc cell number, rep 1	Kc cell number, rep 2	S2R+ cell number, rep 1	S2R+ cell number, rep 2	outcome
1	Ugt302C1	DRSC15353	1.56e6	1.64e6	1.35e6	1.48e6	inactive
2	CG7457	DRSC10849	1.54e6	1.49e6	1.23e6	1.29e6	inactive
3	Slh	DRSC00789	1.41e6	1.50e6	9.14e5	1.09e6	inactive
4	lilli	DRSC00708	1.52e6	1.50e6	1.03e6	1.21e6	inactive
5	Tif-IA	DRSC03717	1.28e6	1.35e6	1.06e6	1.11e6	inactive
6	Tif-IA	DRSC03726	1.65e6	1.71e6	1.15e6	2.19e5	inactive
7	cag	DRSC07587	1.74e6	1.77e6	1.31e6	1.48e6	inactive
8	CG15317	DRSC18005	1.71e6	1.61e6	1.08e6	1.16e6	inactive
9	en	DRSC07609	1.66e6	1.69e6	1.24e6	1.42e6	inactive
10	kcc	DRSC04316	1.37e6	1.43e6	1.05e6	1.10e6	inactive
11	kcc	DRSC04516	1.61e6	1.68e6	1.26e6	1.38e6	inactive
12	Scsalpha2	DRSC16003	1.48e6	1.59e6	1.13e6	1.15e6	inactive
13	CG32281	DRSC08236	1.32e6	1.46e6	1.14e6	9.65e5	inactive
14	CG4927	DRSC06903	1.64e6	1.71e6	1.28e6	1.49e6	inactive
15	CG13204	DRSC06328	1.47e6	1.55e6	1.15e6	1.29e6	inactive
16	CG8046	DRSC07059	1.07e6	1.49e6	1.04e6	1.05e6	inactive
17	SCaMC	DRSC10293	1.41e6	1.45e6	1.20e6	1.17e6	inactive
18	SCaMC	DRSC10415	1.67e6	1.63e6	1.31e6	1.60e6	inactive
19	CG14490	DRSC06461	1.48e6	1.55e6	1.18e6	1.29e6	inactive
20	dan	DRSC14406	1.59e6	1.49e6	1.33e6	1.40e6	inactive
21	CG33306	DRSC01899	1.33e6	1.38e6	1.29e6	1.28e6	inactive
22	CG12010	DRSC08218	1.43e6	1.29e6	1.03e6	1.23e6	inactive
23	CG12054	DRSC14467	2.04e5		4.56e5		active
24	ZnT86D	DRSC16091	1.58e6	1.56e6	1.18e6	1.27e6	inactive
25	CG18493	DRSC15334	1.29e6	1.27e6	1.11e6	1.22e6	inactive
26	bel	DRSC16555	1.30e6	1.43e6	1.04e6	1.15e6	inactive
27	CG1208	DRSC12190	1.56e6	1.70e6	1.27e6	1.32e6	inactive
28	CG17068	DRSC20545	1.48e6	1.55e6	1.03e6	1.22e6	inactive
29	CG3880	DRSC04428	1.67e6	1.76e6	1.43e6	1.58e6	inactive
30	Frmd5	DRSC02802	1.63e6	1.64e6	1.17e6	1.29e6	inactive
31	CG13196	DRSC06321	1.57e6	1.67e6	1.35e6	1.43e6	inactive
32	CG11151	DRSC19387	1.67e6	1.69e6	9.97e5	1.18e6	inactive

2 of these entries, set out differently:
SCaMC [DRSC10293]
- Kc cell number, rep 1: 1.41e6
- Kc cell number, rep 2: 1.45e6
- S2R+ cell number, rep 1: 1.20e6
- S2R+ cell number, rep 2: 1.17e6
- outcome: inactive

SCaMC [DRSC10415]
- Kc cell number, rep 1: 1.67e6
- Kc cell number, rep 2: 1.63e6
- S2R+ cell number, rep 1: 1.31e6
- S2R+ cell number, rep 2: 1.60e6
- outcome: inactive

Additional entries follow.
no.	gene knocked down	DRSC id	Kc cell number, rep 1	Kc cell number, rep 2	S2R+ cell number, rep 1	S2R+ cell number, rep 2	outcome
33	brk	DRSC18745	1.42e6	1.45e6	8.72e5	9.81e5	inactive
34	Ptp99A	DRSC13933	1.44e6	1.59e6	1.04e6	1.21e6	inactive
35	Ptp99A	DRSC13939	1.07e6	1.34e6	1.10e6	1.07e6	inactive
36	Ptp99A	DRSC14319	1.44e6	1.46e6	9.74e5	1.12e6	inactive
37	Ptp99A	DRSC14320	1.46e6	1.54e6	1.05e6	1.09e6	inactive
38	Ptp99A	DRSC16803	1.53e6	1.53e6	1.02e6	1.10e6	inactive
39	Lcp65Ag3	DRSC10345	1.35e6	1.32e6	1.15e6	1.22e6	inactive
40	CG13386	DRSC02260	1.57e6	1.59e6	1.26e6	1.43e6	inactive
41	CG13928	DRSC08397	1.43e6	1.34e6	9.43e5	1.14e6	inactive
42	Adsl	DRSC15500	1.45e6	1.52e6	1.08e6	1.13e6	inactive
43	CG11771	DRSC14379	1.54e6	1.57e6	1.28e6	1.37e6	inactive
44	Psa	DRSC08152	1.41e6	1.50e6	1.09e6	1.01e6	inactive
45	cyp33	DRSC07600	1.35e6	1.47e6	1.13e6	1.09e6	inactive
46	Rpn13	DRSC06379	1.52e6	1.50e6	1.12e6	1.34e6	inactive
47	Sbds	DRSC10992	1.30e6	1.43e6	1.37e6	1.16e6	inactive
48	link	DRSC06368	1.54e6	1.52e6	9.85e5	1.06e6	inactive
49	CG12128 + CG1407	DRSC06446	1.40e6	1.46e6	1.08e6	1.14e6	inactive
50	CG17304 (retired record)	DRSC15222	1.35e6	1.46e6	8.84e5	9.82e5	inactive
51	CG34022 (retired record)	DRSC07949	1.43e6	1.39e6	9.89e5	1.11e6	inactive
52	CG4907	DRSC15673	1.64e6	1.61e6	1.02e6	1.14e6	inactive
53	janB	DRSC16973	1.56e6	1.56e6	1.09e6	1.23e6	inactive
54	CG6179	DRSC19973	1.72e6	1.78e6	1.24e6	1.37e6	inactive
55	Crz	DRSC16615	1.49e6	1.51e6	1.15e6	1.25e6	inactive
56	slv	DRSC07685	1.45e6	1.61e6	1.27e6	1.38e6	inactive
57	Ir40a	DRSC03732	1.50e6	1.59e6	1.35e6	3.26e5	inactive
58	Ir40a	DRSC03733	1.48e6	1.58e6	1.32e6	3.22e5	inactive
59	Prp4k	DRSC08144	1.35e6	1.39e6	1.30e6	1.26e6	inactive
